The experiment can be described thus: qHTS Assay for Modulators of Lamin A Splicing. To be noted: HeLa LMNA splicing GFP/RFP minigene ratio, 48 h. The method, boiled down: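 Read-out is the ratio of GFP to DsRed2 object intensity, acquired by 488 nm laser-scanning cytometry on HeLa lamin A-EGFP minigene reporter cells. Compound incubation 48 hrs at 37 °C in Opti-MEM with 2% FBS; DMSO 0.5% final.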
(In general: In qHTS, concentration-response curves come from the screen itself.)

The mark [1] stands for this setting: measured here: RFP viability control channel.
The mark [2] stands for this setting: measured here: GFP splicing reporter channel.

This is one part of the list. These are further read-outs of the screen, such as a control signal, another cell line or another target. No call is given for them. Compounds called inactive in the main read-out are mostly missing here. The note in brackets gives the kind of curve behind each potency; many fits are weak.

As for `COCCN(Cc1nc(C2(c3ccc(C)cc3)CCCC2)no1)C(C)C`, the AC50 (in general, the concentration giving half of the maximal activity seen) under setting [1] is 5.62 µM [falling, full curve]. Regarding `CC(=O)c1cccc(N(CC(=O)Nc2ccc(F)cc2)S(C)(=O)=O)c1`, the AC50 under setting [2] is 11.2 µM [rising, partial curve, poor fit]. On to `CCN(CC)CCNS(=O)(=O)c1ccc(/C=C/C(=O)O)cc1`, for which the AC50 under setting [2] was 17.8 µM [falling, partial curve, poor fit]. As to `COc1ccc(-c2nnc3sc(COc4ccc(C)cc4)nn23)cc1`, the AC50 under setting [2] was 7.08 µM [rising, partial curve, poor fit] and the AC50 under setting [1] was 7.94 µM [rising, partial curve]. Turning to `Cc1ccc(C)c(NC(=O)COC(=O)CC2c3ccccc3CCN2S(=O)(=O)c2ccc(F)cc2)c1` (stereo not given), under setting [2], the AC50 was 0.00891 µM [rising, full curve, poor fit]. For the compound `Cc1ccc(/C=N\NC(=O)c2ccc(Cn3cc(Br)c([N+](=O)[O-])n3)o2)o1`, the AC50 is 0.2 µM [falling, full curve, poor fit] under setting [2] and 25.1 µM [falling, single point] under setting [1]. Regarding `COc1cccc(C(=O)NCC(c2ccc(N(C)C)cc2)N2CCOCC2)c1OC` (stereo not given), the AC50 under setting [1] was 2.24 µM [rising, full curve, poor fit]. As to `COc1ccc(N2CCC(CNC(=O)Nc3ccc(Cl)cc3)C2)cc1` (stereo not given), the AC50 under setting [2] is 5.01 µM [falling, partial curve, poor fit]. For `CCc1nc2sc3c(c2c(=O)n1N)CC(C)(C)OC3`, under setting [1], the AC50 is 1.78 µM [falling, partial curve].

For the compound `O=C(c1ccc2c(Cl)c3c(nc2c1)CCCC3)N1CCC(N2CCCCC2)CC1`, under setting [1], the AC50 was 17.8 µM [rising, single point].

As for `NS(=O)(=O)Cc1noc2ccccc12`, the AC50 reads like this: under setting [2], 17.8 µM [falling, single point]; under setting [1], 0.891 µM [falling, single point].

On to `NNc1nc2c(-c3ccc(F)cc3)nnn2c2ccccc12`, for which the AC50 under setting [2] was 28.2 µM [falling, partial curve]. As for `Cc1nn(C)c2c1c(-c1ccccc1)cc(=O)n2CC(=O)NC(C)(C)C`, the AC50 under setting [2] was 7.94 µM [falling, partial curve, poor fit] and the AC50 under setting [1] was 0.1 µM [falling, full curve, poor fit]. On to `CCOC(=O)/C(N=Nc1c(Br)cc(Br)cc1Br)=C(\C)O`, for which the half-maximal activity concentration (AC50) is 35.5 µM [falling, single point] under setting [2] and 35.5 µM [falling, single point] under setting [1]. Regarding `c1ccc(CCNc2ccnc3cc4ccccc4cc23)cc1`, the AC50 is, setting by setting: under setting [2], 15.8 µM [falling, single point]; under setting [1], 3.16 µM [falling, single point]. Turning to `COc1cc(/C=C(\C#N)c2ccccn2)ccc1OCC(=O)Nc1ccc(Br)cc1`, the AC50 runs as follows: under setting [2], 17.8 µM [falling, single point]; under setting [1], 35.5 µM [falling, single point].

On to `CCOC(=O)c1cnc(-n2nc(C)cc2C)nc1NC(C)c1ccccc1` (stereo not given), for which, under setting [1], the AC50 was 12.6 µM [rising, partial curve]. Consider `CCC(Sc1nc(C)cc(=O)[nH]1)C(=O)Nc1sc2c(c1C#N)CCCC2` (stereo not given), for which the half-maximal activity concentration (AC50) under setting [1] is 17.8 µM [rising, single point]. For the compound `C=CCn1c(SCC(=O)N2CCN(c3ccc(F)cc3)CC2)nnc1-c1ccco1`, the AC50 by setting is: under setting [2], 14.1 µM [rising, single point]; under setting [1], 17.8 µM [rising, partial curve].

For the compound `CN(C)CCN(Cc1ccc(Cl)cc1)c1ccccn1`, under setting [2], the AC50 is 10 µM [falling, partial curve, poor fit]. With `O=C(c1cccc2ccccc12)C1CCCN(C(=O)CCN2CCCO2)C1` (stereo not given), the AC50 under setting [2] was 28.2 µM [falling, partial curve] and the AC50 under setting [1] was 10 µM [falling, partial curve, poor fit]. `O=C(Nc1ncc(Cc2ccc(SC(F)F)cc2)s1)c1ccc(OC(F)F)cc1`: the AC50 was 0.631 µM [rising, full curve] under setting [2] and 0.631 µM [rising, full curve] under setting [1]. As for `CC(C)Nc1ncnc2ccc(Br)cc12`, the AC50 under setting [2] was 3.55 µM [rising, full curve] and the AC50 under setting [1] is 7.94 µM [rising, partial curve].

Take `CCCC(=O)N1CCN(c2ccc([N+](=O)[O-])cc2Cl)CC1`: the AC50 under setting [2] was 0.562 µM [rising, full curve]. Consider `CCC(=O)Nc1cccc(-c2cn3c(C)csc3n2)c1`, for which the AC50 under setting [2] was 6.31 µM [rising, single point]. `COc1ccc2[nH]cc(CCNc3nc(-c4cccc(NS(C)(=O)=O)c4)nc4ccccc34)c2c1`: the AC50 was 35.5 µM [falling, single point] under setting [2] and 35.5 µM [falling, single point] under setting [1]. For `CSc1nc2ccccc2cc1/C=C(\C#N)c1ccccc1`, the AC50 was 5.01 µM [falling, partial curve] under setting [2] and 5.01 µM [falling, partial curve] under setting [1]. Turning to `Clc1ccc(-c2ccc(/C=N/Nc3cc(N4CCOCC4)nc(N4CCOCC4)n3)o2)cc1`, the half-maximal activity concentration (AC50) under setting [1] was 31.6 µM [rising, single point]. Take `Cc1ccc(-c2cc(C(=O)N(C)Cc3cnn(C)c3C)c3cc(Br)ccc3n2)cc1`: the AC50 is 10 µM [rising, partial curve, poor fit] under setting [2] and 22.4 µM [rising, partial curve] under setting [1]. As for `COc1ccc(O[C@H]2C=C[C@@H](c3ccccc3)O[C@@H]2CO/N=C(\C)CCN2CCCCc3nc(C)c(C)cc32)cc1`, the AC50 by setting is: under setting [2], 12.6 µM [rising, partial curve]; under setting [1], 22.4 µM [rising, partial curve]. For `C/C(=N\NC(=O)c1cccc(N/N=C(\C)c2ccncc2)c1)c1ccncc1`, the AC50 under setting [1] was 10 µM [falling, partial curve]. With `COc1ccc(NC(=S)N(Cc2ccc(N(C)C)cc2)Cc2ccco2)cc1`, the AC50 under setting [1] was 12.6 µM [rising, partial curve]. As for `Clc1cccc(Cl)c1COn1nnc2ccccc21`, the AC50 under setting [2] was 35.5 µM [rising, single point]. As for `C[C@@H](CNC1CCCCC1)OC(=O)c1ccccc1`, the AC50 under setting [2] is 0.00224 µM [falling, full curve, poor fit] and the AC50 under setting [1] was 12.6 µM [falling, single point].

Values taken from PubChem BioAssay AID1487 (National Center for Advancing Translational Sciences (NCATS), 2009).
